Data published in US12702307B2, “Non-invasive stress imaging methods of diagnosing peripheral arterial disease via dynamic pet” (Jubilant DraxImage inc., priority 2021, dated 2026).

Test system: calf muscles, hindlimb ischemia (HLI)
Assay: Rb-82 PET/CT of calf muscles in rabbit hindlimb ischemia at rest and cuff-induced hyperemia
Type: in vivo, rabbits
Method: Methods: Hindlimb ischemia (HLI) was created in rabbits (n=8) by right femoral ligations and Rb-82 PET/CT imaging performed on digital PET scanner (Vision600, Siemens) at either 2 or 4 weeks post-ligation. Rabbits were injected with Rb-82 (1.5 mCi) with constant activity infusion over 30 seconds at rest and 30 seconds following hyperemia induced by 3 minutes cuff occlusion of thighs bilaterally. PET images were acquired with shuttling scanner from heart to feet using 8 passes over 7 minutes. Summed images were created excluding the first 90 seconds post injection. Calf muscles were segmented based on CT images. Mean Rb-82 standardized uptake values (SUVs) were calculated for calf muscles—gastrocnemius (GC), plantaris (PLA), soleus (SOL), tibialis anterior (TA), extensor digitorum longus (EDL), peroneus (PER)—for both ischemic (I) and non-ischemic (NI) limbs. CT angiography was performed, and tissues analyzed for fiber type and capillary density.

For Rb-82 chloride, the “SMPR (skeletal muscle perfusion reserve)” value (ischemic (I) limb, in presence of collaterals) was 1.98±0.63 and the “SMPR (skeletal muscle perfusion reserve)” value (non-ischemic (NI) limb) was 2.30±0.54.
